# Source: publication PMC11235583, “Structural basis of odor sensing by insect heteromeric odorant receptors” (Science (New York, N.Y.), 2024)
# These are yes or no findings as the source states them, for the method shown. Some binding calls cover weakened binding; strength is not graded here.
# Assays:
# [1] = molecular target: Apocrypta bakeri odorant receptor co-receptor Orco (Apocrypta bakeri) (UniProt B0FAQ4); experiment: cryo-EM structure; AaOR10/Orco heteromers co-expressed in HEK293 cells (1:1 OR to Orco virus), purified by an affinity tag on the OR subunit, in detergent micelle; unbound and o-cresol-bound states
# [2] = molecular target: Apocrypta bakeri odorant receptor co-receptor Orco (Apocrypta bakeri) (UniProt B0FAQ4); experiment: cryo-EM structure; AgOR28 co-expressed with A. bakeri Orco, purified complex; unbound and 2,4,5-trimethylthiazole (TMT)-bound states
binder,measurement,setting,value
"Apocrypta bakeri odorant receptor co-receptor Orco (receptor, UniProt B0FAQ4 1-474) MKFKHQGLVADLLPNIRVMQGVGHFMFNYYSEGKKFPHRIYCIVTLLLLLLQYGMMAVNLMMESDDVDDLTANTITMLFFLHPIVKMIYFPVRSKIFYKTLAIWNNPNSHPLFAESNARFHALAITKMRRLLFCVAGATIFSVISWTGITFIEDSVKRITDPETNETTIIPIPRLMIRTFYPFNAMSGAGHVFALIYQFYYLVISMAVSNSLDVLFCSWLLFACEQLQHLKAIMKPLMELSATLDTVVPNSGELFKAGSADHLRESQGVQPSGNGDNVLDVDLRGIYSNRQDFTATFRPTAGTTFNGGVGPNGLTKKQEMLVRSAIKYWVERHKHVVRLVTAVGDAYGVALLLHMLTTTITLTLLAYQATKVNGVNVYAATVIGYLLYTLGQVFLFCIFGNRLIEESSSVMEAAYSCHWYDGSEEAKTFVQIVCQQCQKAMSISGAKFFTVSLDLFASVLGAVVTYFMVLVQLK",binding,[1],binds
same,binding,[2],binds
